Laboratory results as given in the supplement of paper PMC3334620.
In all, about 33,000 sequences were measured (“E-score (-0.5 to 0.5)”: median about -0.0059, highest 2% from about 0.26 on). Some of the results follow.

The sequences below were run against T1, Cin5 (UniProt P40917) (assay: PBM E-score (8-mer binding enrichment) (E-score (-0.5 to 0.5)); higher = stronger / more preferred TF binding). Conditions: protein concentration: 100 nM; construct: GST-full length.
T1 sequence: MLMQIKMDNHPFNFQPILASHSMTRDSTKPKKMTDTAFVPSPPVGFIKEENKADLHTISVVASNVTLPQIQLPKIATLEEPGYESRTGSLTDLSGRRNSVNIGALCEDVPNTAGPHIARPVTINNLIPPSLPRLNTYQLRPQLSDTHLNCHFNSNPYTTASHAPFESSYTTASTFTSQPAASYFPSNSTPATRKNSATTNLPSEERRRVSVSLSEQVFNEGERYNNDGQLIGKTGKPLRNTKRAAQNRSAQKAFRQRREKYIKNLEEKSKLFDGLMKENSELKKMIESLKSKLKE
Outline: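 Bound GST-tagged yeast transcription factors, applied at about 100-200 nM to double-stranded universal all-10-mer Agilent arrays, were detected with fluorescent anti-GST. Scans were normalised with masliner. A modified Wilcoxon-Mann-Whitney statistic, the E-score, was assigned to each ungapped eight-base word pooled with its reverse complement by the Universal PBM Analysis Suite.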

Sequence	PBM E-score
ACAAGTAC	0.0459
GGCTACAC	-0.205
AGGACAAG	-0.0481
AATTTTCG	-0.0119
CCAACACC	-0.173
AAAACTCC	-0.105
AAAGTGTG	-0.00283
GTCGTAAA	0.00493
AGAACAAT	0.24
CGTATAGC	0.00345
ATTGGGAG	-0.0663
TAGCAATA	0.111
ACCAAAGA	0.106
CACTACTC	0.0701
AATATTTA	0.217
ATGCACTG	0.0128
GGCATTGA	-0.00943
AAATTCGA	-0.111
AGATCGAC	-0.0831
TCCACACA	0.0716
CTAAAAAG	-0.107
CAGTGTCG	-0.141
GCCAAGGC	-0.223
CCAAATGA	0.155

Sequence	PBM E-score
GCAGTCAA	-0.121
AGCTGGGC	-0.117
GATCATTA	0.163
AGCGGAAT	0.0824
CGAACGCC	-0.133
ACACGGTC	-0.197
AGTTACAG	0.076
CACGATAG	0.139
CCTGAATA	0.0939
CACACAGC	0.0029
AATATTGC	0.235
AATGACGA	0.0266
AGCGCTCA	-0.137
CCTTGTCA	-0.0326
AAATGTGA	0.0813
AGATACTG	0.219
ACTCTCAC	0.0634
AATTGCGT	0.135
CATAATAA	0.0985
ACCGTATA	-0.0584
ATAGAAAA	0.199
AAGCCGCT	0.0612
AGACGGAT	0.152
CAGAGGCA	-0.109

Some of the entries so far, field by field:
ACTCTCAC
  PBM E-score: 0.0634
AATTGCGT
  PBM E-score: 0.135
CATAATAA
  PBM E-score: 0.0985
ACCGTATA
  PBM E-score: -0.0584

The list goes on:

Sequence	PBM E-score
CGAATTCG	-0.0651
GAACGCGA	0.176
AGAGCAGA	0.027
CGCGCACC	-0.0386
ATATGTAC	0.21
CGTCCAGA	-0.219
GCATATCC	0.0386
AGTATAAT	0.301
CTCGCCGA	-0.0319
ACGTGTAC	-0.126
AGGCGTTA	-0.05
CAATCCAA	0.0285
ATCGGATC	0.00099
CAAAGATA	0.12
TACTACCA	-0.0521
CCGTGCAG	0.0325
GACTACTC	0.0304
ATCTTGCA	0.203
CCGGACAC	-0.205
GAAGCACC	-0.0572
TGGCCCCA	-0.103
CCTAAGAG	-0.0253
ACTTGGGC	-0.139
AGAGAACC	-0.217

Sequence	PBM E-score
AAATCTTC	-0.00535
GAATTCCA	0.173
CCGATCGA	-0.0237
AGTCACGC	-0.0563
ACCTGCCT	-0.141
ATACGGAA	0.232
CTAGATAG	-0.141
TCCCAGGA	-0.158
GATAGAAA	0.126
ACCGCGAC	-0.104
CCGTAGAA	-0.223
AAGCTTGC	-0.0817
GGACGCTA	-0.24
GGCCCATA	-0.102
CACGTGGG	-0.172
AGAAAATA	0.191
CCCGGTCC	-0.17
TTAAGAAA	-0.116
AAAAATAA	0.215
GCTCAAGC	-0.167
ATTCCCGG	0.243
AGGTAGAG	-0.22
